Test [1] addresses T1, 41-mRLUC-3×Flag.
T1 sequence: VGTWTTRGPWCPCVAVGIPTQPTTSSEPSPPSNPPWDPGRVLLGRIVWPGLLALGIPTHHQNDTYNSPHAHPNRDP
Kind of test: co-IP; competition experiment, the complex of GFP-Grb7 SH2 and 41-mRLUC-3×Flag from transfected HEK293T without competing peptide.

The target in another test is T2, 10CM-mRLUC-3×Flag.
T2 sequence: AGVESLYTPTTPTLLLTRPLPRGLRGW
Kind of test: co-IP; HEK293T co-transfected; lysate (1% NP-40, 0.5% deoxycholate, 0.1% SDS, 0.15 M NaCl, pH 7.5); precipitated with anti-Flag antibody and protein G agarose at 4°C, blotted with anti-GFP.

Test [2] deals with T1, 41-mRLUC-3×Flag. Described as above.
Test [3] has as its target GAL4 BD-Grb7 SH2 domain (human). Kind of test: two-hybrid; GAL4 BD-SH2 bait and AD peptide in yeast strain CG1945; selection on SD/-Trp-His-Leu, retransformation and improved LacZ assay.

These are yes or no findings as the source states them, for the method shown. For some assays here: In cells and extracts the contact can be indirect. Some binding calls cover weakened binding; strength is not graded here. For some assays here: Tags and fused reporters may be left off the sequences shown.

B1: EGFP-Grb7 SH2 (domain or fragment)
chain: IHRTQLWFHGRISREESQRLIGQQGLVDGLFLVRESQRNPQGFVLSLCHLQKVKHYLILPSEEEGRLYFSMDDGQTRFTDLLQLVEFHQLNRGILPCLLRHCCTRVAL
Take B1: the binding entry is “binds” with 41-mRLUC-3×Flag [1], “no binding” in the test with 10CM-mRLUC-3×Flag and “binds” in the test with 41-mRLUC-3×Flag [2]. As to AGVESLGIPNYTPTTPTLLLTRPLPRGLRGW [peptide 10BM (C-terminal conserved GIP of peptide 10 deleted), two-hybrid form], in test [3], the binding result was “no binding”. AGVESLYTPTTPTLLLTRPLPRGLRGW [peptide 10CM (both conserved ends of peptide 10 deleted), two-hybrid form]: the binding entry in test [3] is “no binding”.

(Values after article PMC3256188, “Novel Nonphosphorylated Peptides with Conserved Sequences Selectively Bind to Grb7 SH2 Domain with Affinity Comparable to Its Phosphorylated Ligand” (PLoS ONE, 2012).)
